Data published in paper PMC3577733.

How the values were obtained:
[1] = target: AaPYL9 (Artemisia annua ABA receptor orthologue), yeast two-hybrid fusion (Artemisia annua); experiment: two-hybrid; yeast AH109, BD (pDEST32) and AD (pDEST22) constructs co-transformed; growth on SD/-T-L-H and SD/-T-L-H-A without ABA
[2] = target: AaPYL9 (Artemisia annua ABA receptor orthologue), yeast two-hybrid fusion (Artemisia annua); experiment: two-hybrid; yeast AH109, BD (pDEST32) and AD (pDEST22) constructs co-transformed; growth on SD/-T-L-H-A supplemented with 10 µM ABA

B1: AtHAB2 (Arabidopsis HAB2), yeast two-hybrid fusion (enzyme, UniProt Q9LNP9 1-511)
chain: MEEISPAVALTLGLANTMCDSGISSTFDISELENVTDAADMLCNQKRQRYSNGVVDCIMGSVSEEKTLSEVRSLSSDFSVTVQESEEDEPLVSDATIISEGLIVVDARSEISLPDTVETDNGRVLATAIILNETTIEQVPTAEVLIASLNHDVNMEVATSEVVIRLPEENPNVARGSRSVYELECIPLWGTISICGGRSEMEDAVRALPHFLKIPIKMLMGDHEGMSPSLPYLTSHFFGVYDGHGGAQVADYCHDRIHSALAEEIERIKEELCRRNTGEGRQVQWEKVFVDCYLKVDDEVKGKINRPVVGSSDRMVLEAVSPETVGSTAVVALVCSSHIIVSNCGDSRAVLLRGKDSMPLSVDHKPDREDEYARIEKAGGKVIQWQGARVSGVLAMSRSIGDQYLEPFVIPDPEVTFMPRAREDECLILASDGLWDVMSNQEACDFARRRILAWHKKNGALPLAERGVGEDQACQAAAEYLSKLAIQMGSKDNISIIVIDLKAQRKFKTRS
**Q.** B1 was tested. Which binding [1] did it give?
**A.** no binding

**Q.** What about the binding [2] of the same binder?
**A.** no binding

These are yes or no findings as the source states them, for the method shown. Tags and fused reporters may be left off the sequences shown.
